No constants are given. Whether binding was seen depends on the method and setting. In cells and extracts the contact can be indirect. Some entries that bind do so weakly or less than the wild type. Where a sequence is shown, tags or fusion partners need not be part of it.
T1: GST-tagged Rab19 (UniProt A4D1S5)
T1 sequence: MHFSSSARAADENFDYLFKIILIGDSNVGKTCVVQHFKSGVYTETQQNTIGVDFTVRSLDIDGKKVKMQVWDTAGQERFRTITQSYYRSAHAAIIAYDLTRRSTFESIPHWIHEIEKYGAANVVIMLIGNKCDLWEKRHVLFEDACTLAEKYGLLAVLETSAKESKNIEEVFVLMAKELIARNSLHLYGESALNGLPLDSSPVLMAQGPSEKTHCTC

B1: Vps11 (endogenous, HEK293T cells) (protein, UniProt Q9H270 1-941)
chain: MAAYLQWRRFVFFDKELVKEPLSNDGAAPGATPASGSAASKFLCLPPGITVCDSGRGSLVFGDMEGQIWFLPRSLQLTGFQAYKLRVTHLYQLKQHNILASVGEDEEGINPLVKIWNLEKRDGGNPLCTRIFPAIPGTEPTVVSCLTVHENLNFMAIGFTDGSVTLNKGDITRDRHSKTQILHKGNYPVTGLAFRQAGKTTHLFVVTTENVQSYIVSGKDYPRVELDTHGCGLRCSALSDPSQDLQFIVAGDECVYLYQPDERGPCFAFEGHKLIAHWFRGYLIIVSRDRKVSPKSEFTSRDSQSSDKQILNIYDLCNKFIAYSTVFEDVVDVLAEWGSLYVLTRDGRVHALQEKDTQTKLEMLFKKNLFEMAINLAKSQHLDSDGLAQIFMQYGDHLYSKGNHDGAVQQYIRTIGKLEPSYVIRKFLDAQRIHNLTAYLQTLHRQSLANADHTTLLLNCYTKLKDSSKLEEFIKKKSESEVHFDVETAIKVLRQAGYYSHALYLAENHAHHEWYLKIQLEDIKNYQEALRYIGKLPFEQAESNMKRYGKILMHHIPEQTTQLLKGLCTDYRPSLEGRSDREAPGCRANSEEFIPIFANNPRELKAFLEHMSEVQPDSPQGIYDTLLELRLQNWAHEKDPQVKEKLHAEAISLLKSGRFCDVFDKALVLCQMHDFQDGVLYLYEQGKLFQQIMHYHMQHEQYRQVISVCERHGEQDPSLWEQALSYFARKEEDCKEYVAAVLKHIENKNLMPPLLVVQTLAHNSTATLSVIRDYLVQKLQKQSQQIAQDELRVRRYREETTRIRQEIQELKASPKIFQKTKCSICNSALELPSVHFLCGHSFHQHCFESYSESDADCPTCLPENRKVMDMIRAQEQKRDLHDQFQHQLKCSNDSFSVIADYFGRGVFNKLTLLTDPPTARLTSSLEAGLQRDLLMHSRRGT
B2: HA–Vps3 (protein, UniProt Q8WUH2 1-860)
chain: MMSIKAFTLVSAVERELLMGDKERVNIECVECCGRDLYVGTNDCFVYHFLLEERPVPAGPATFTATKQLQRHLGFKKPVNELRAASALNRLLVLCDNSISLVNMLNLEPVPSGARIKGAATFALNENPVSGDPFCVEVCIISVKRRTIQMFLVYEDRVQIVKEVSTAEQPLAVAVDGHFLCLALTTQYIIHNYSTGVSQDLFPYCSEERPPIVKRIGRQEFLLAGPGGLGMFATVAGISQRAPVHWSENVIGAAVSFPYVIALDDEFITVHSMLDQQQKQTLPFKEGHILQDFEGRVIVATSKGVYILVPLPLEKQIQDLLASRRVEEALVLAKGARRNIPKEKFQVMYRRILQQAGFIQFAQLQFLEAKELFRSGQLDVRELISLYPFLLPTSSSFTRSHPPLHEYADLNQLTQGDQEKMAKCKRFLMSYLNEVRSTEVANGYKEDIDTALLKLYAEADHDSLLDLLVTENFCLLTDSAAWLEKHKKYFALGLLYHYNNQDAAAVQLWVNIVNGDVQDSTRSDLYEYIVDFLTYCLDEELVWAYADWVLQKSEEVGVQVFTKRPLDEQQKNSFNPDDIINCLKKYPKALVKYLEHLVIDKRLQKEEYHTHLAVLYLEEVLLQRASASGKGAEATETQAKLRRLLQKSDLYRVHFLLERLQGAGLPMESAILHGKLGEHEKALHILVHELQDFAAAEDYCLWCSEGRDPPHRQQLFHTLLAIYLHAGPTAHELAVAAVDLLNRHATEFDAAQVLQMLPDTWSVQLLCPFLMGAMRDSIHARRTMQVALGLARSENLIYTYDKMKLKGSSIQLSDKKLCQICQNPFCEPVFVRYPNGGLVHTHCAASRHTNPSSSSPGTRT
B3: Vps8–GFP (protein, UniProt Q8N3P4 1-1428)
chain: MENEPDHENVEQSLCAKTSEEELNKSFNLEASLSKFSYIDMDKELEFKNDLIDDKEFDIPQVDTPPTLESILNETDDEDESFILEDPTLLNIDTIDSHSYDTSSVASSDSGDRTNLKRKKKLPDSFSLHGSVMRHSLLKGISAQIVSAADKVDAGLPTAIAVSSLIAVGTSHGLALIFGKDQNQALRLCLGSTSVGGQYGAISALSINNDCSRLLCGFAKGQITMWDLASGKLLRSITDAHPPGTAILHIKFTDDPTLAICNDSGGSVFELTFKRVMGVRTCESRCLFSGSKGEVCCIEPLHSKPELKDHPITQFSLLAMASLTKILVIGLKPSLKVWMTFPYGRMDPSSVPLLAWHFVAVQNYVNPMLAFCRGDVVHFLLVKRDESGAIHVTKQKHLHLYYDLINFTWINSRTVVLLDSVEKLHVIDRQTQEELETVEISEVQLVYNSSHFKSLATGGNVSQALALVGEKACYQSISSYGGQIFYLGTKSVYVMMLRSWRERVDHLLKQDCLTEALALAWSFHEGKAKAVVGLSGDASKRKAIVADRMVEILFHYADRALKKCPDQGKIQVMEQHFQDMVPVIVDYCLLLQRKDLLFSQMYDKLSENSVAKGVFLECLEPYILSDKLVGITPQVMKDLIVHFQDKKLMENVEALIVHMDITSLDIQQVVLMCWENRLYDAMIYVYNRGMNEFISPMEKLFRVIAPPLNAGKTLTDEQVVMGNKLLVYISCCLAGRAYPLGDIPEDLVPLVKNQVFEFLIRLHSAEASPEEEIYPYIRTLLHFDTREFLNVLALTFEDFKNDKQAVEYQQRIVDILLKVMVENSDFTPSQVGCLFTFLARQLAKPDNTLFVNRTLFDQVLEFLCSPDDDSRHSERQQVLLELLQAGGIVQFEESRLIRMAEKAEFYQICEFMYEREHQYDKIIDCYLRDPLREEEVFNYIHNILSIPGHSAEEKQSVWQKAMDHIEELVSLKPCKAAELVATHFSGHIETVIKKLQNQVLLFKFLRSLLDPREGIHVNQELLQISPCITEQFIELLCQFNPTQVIETLQVLECYRLEETIQITQKYQLHEVTAYLLEKKGDIHGAFLIMLERLQSKLQEVTHQGENTKEDPSLKDVEDTMVETIALCQRNSHNLNQQQREALWFPLLEAMMAPQKLSSSAIPHLHSEALKSLTMQVLNSMAAFIALPSILQRILQDPVYGKGKLGEIQGLILGMLDTFNYEQTLLETTTSLLNQDLHWSLCNLRASVTRGLNPKQDYCSICLQQYKRRQEMADEIIVFSCGHLYHSFCLQNKECTVEFEGQTRWTCYKCSSSNKVGKLSENSSEIKKGRITPSQVKMSPSYHQSKGDPTAKKGTSEPVLDPQQIQAFDQLCRLYRGSSRLALLTELSQNRSSESYRPFSGSQSAPAFNSIFQNENFQLQLIPPPVTED

Legend:
[1] = biological target: T1, GST-tagged Rab19; test: pull-down; purified GST–Rab19 added to HEK293T cell lysates (with siRNA knockdown of Vps39, or of Vps41 and Vps39 together; also with purified recombinant Rab7A added), captured on glutathione beads; immunoblot for endogenous Vps11; only the target purified
[2] = biological target: T1, GST-tagged Rab19; test: pull-down; purified GST–Rab19 added to lysates of HEK293T cells overexpressing HA–Vps3 or Vps8–GFP, captured on glutathione beads; western blot; only the target purified

binding [1] | binding [2] | Binder
binds |  | B1
 | binds | B2
 | binds | B3

Reference: PMC10499034
